Results published in paper doi:10.1101/500082.
Read-outs that look alike come from different tables or passages of the source. Results are given in words; binding and its absence hold for the method and conditions named. In cells and extracts the contact can be indirect. Some entries that bind do so weakly or less than the wild type. Sequences can lack the tags named with a protein.

The chains behind the UniProt entries cited, without tags or fusion partners.
UniProt Q7L804: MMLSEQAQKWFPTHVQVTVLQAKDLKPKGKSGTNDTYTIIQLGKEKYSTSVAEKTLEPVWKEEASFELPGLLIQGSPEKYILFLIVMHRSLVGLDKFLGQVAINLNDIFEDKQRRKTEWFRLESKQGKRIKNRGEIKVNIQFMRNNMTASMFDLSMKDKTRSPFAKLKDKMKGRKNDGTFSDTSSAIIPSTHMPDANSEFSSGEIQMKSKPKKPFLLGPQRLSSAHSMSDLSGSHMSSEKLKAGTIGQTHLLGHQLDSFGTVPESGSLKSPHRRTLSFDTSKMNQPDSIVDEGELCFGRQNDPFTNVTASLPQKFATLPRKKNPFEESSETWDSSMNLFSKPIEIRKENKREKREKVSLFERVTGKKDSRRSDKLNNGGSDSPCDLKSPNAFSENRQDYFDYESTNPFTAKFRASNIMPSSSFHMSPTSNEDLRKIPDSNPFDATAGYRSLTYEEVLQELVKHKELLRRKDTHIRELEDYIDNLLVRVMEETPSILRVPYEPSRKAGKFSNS

Legend:
GFP-Rabenosyn-5 (human) [1] = molecular target: T1, GFP-Rabenosyn-5 (human) (UniProt Q9H1K0); experiment: co-IP
T1 sequence: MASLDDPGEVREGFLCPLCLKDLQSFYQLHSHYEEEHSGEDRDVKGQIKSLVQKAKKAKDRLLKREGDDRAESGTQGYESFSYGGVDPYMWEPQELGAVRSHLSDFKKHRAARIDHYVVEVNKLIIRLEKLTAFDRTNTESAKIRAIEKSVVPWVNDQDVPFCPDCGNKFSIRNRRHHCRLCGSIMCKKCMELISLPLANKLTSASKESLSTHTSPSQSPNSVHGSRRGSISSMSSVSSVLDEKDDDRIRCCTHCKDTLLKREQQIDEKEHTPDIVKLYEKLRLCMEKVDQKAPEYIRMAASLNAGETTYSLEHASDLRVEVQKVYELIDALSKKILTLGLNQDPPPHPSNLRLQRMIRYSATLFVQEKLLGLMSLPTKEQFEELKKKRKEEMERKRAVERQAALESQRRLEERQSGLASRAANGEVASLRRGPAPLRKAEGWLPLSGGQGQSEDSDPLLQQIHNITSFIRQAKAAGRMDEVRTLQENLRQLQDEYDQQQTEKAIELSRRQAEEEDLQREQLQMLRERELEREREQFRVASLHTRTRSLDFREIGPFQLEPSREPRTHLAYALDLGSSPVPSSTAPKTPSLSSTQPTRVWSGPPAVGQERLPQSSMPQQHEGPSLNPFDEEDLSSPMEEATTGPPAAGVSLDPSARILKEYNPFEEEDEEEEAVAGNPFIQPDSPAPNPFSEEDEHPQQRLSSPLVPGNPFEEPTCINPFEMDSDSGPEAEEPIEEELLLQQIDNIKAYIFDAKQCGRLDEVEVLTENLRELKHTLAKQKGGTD

SPE-39-GST (C. elegans) = molecular target: T2, SPE-39-GST (C. elegans) (UniProt Q23288); experiment: pull-down
T2 sequence: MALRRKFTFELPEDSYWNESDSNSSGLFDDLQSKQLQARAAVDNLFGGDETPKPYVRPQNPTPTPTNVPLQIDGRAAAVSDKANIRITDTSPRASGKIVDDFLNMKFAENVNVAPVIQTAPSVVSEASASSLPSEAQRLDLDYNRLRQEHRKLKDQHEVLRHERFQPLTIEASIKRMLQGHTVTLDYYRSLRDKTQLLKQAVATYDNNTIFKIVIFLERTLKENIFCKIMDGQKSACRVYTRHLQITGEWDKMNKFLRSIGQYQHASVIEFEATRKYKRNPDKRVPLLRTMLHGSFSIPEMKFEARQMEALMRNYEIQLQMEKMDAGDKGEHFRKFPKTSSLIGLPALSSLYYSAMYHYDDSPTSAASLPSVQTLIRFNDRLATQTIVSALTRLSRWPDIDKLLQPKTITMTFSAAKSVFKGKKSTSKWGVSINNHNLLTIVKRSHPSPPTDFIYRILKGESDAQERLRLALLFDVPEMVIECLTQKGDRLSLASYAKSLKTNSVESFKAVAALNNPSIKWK

GFP-Rabenosyn-5 (human) [2] = molecular target: T1, GFP-Rabenosyn-5 (human); experiment: co-IP; remark: listed apart in the source
GFP-VIPAS39 (human) = molecular target: T3, GFP-VIPAS39 (human) (UniProt Q9H9C1); experiment: co-IP
T3 sequence: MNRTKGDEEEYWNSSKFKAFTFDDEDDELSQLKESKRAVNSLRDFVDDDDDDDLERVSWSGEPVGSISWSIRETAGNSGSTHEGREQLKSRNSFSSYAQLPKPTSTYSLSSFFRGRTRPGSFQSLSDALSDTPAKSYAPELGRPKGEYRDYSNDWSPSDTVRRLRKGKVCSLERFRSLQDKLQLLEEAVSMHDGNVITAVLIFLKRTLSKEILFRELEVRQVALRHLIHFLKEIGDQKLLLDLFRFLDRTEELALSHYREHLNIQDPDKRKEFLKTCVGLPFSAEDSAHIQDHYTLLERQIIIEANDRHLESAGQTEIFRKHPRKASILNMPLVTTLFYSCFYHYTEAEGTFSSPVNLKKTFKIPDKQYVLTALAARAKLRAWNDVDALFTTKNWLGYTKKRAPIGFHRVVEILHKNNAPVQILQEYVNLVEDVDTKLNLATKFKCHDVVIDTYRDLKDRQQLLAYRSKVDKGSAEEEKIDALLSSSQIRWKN

Molecule: myc-Rab11FIP2 (from UniProt Q7L804 1-512)
- binding (GFP-Rabenosyn-5 (human) [1]): no binding

B1: VPS-33.2 (protein, UniProt Q18891 1-617)
chain: MAPGTAELEIDETLHLLRMVMQREFIHYLETLPGTKELFIDKCLLRPLDMIATSSDMKRHGVKRIMHFDLQKSPQVWNIEIDQRVFFLRPNVENARKIVEYVEESSENRSICVIWCNRQLEECDLAFESSGVIGHITQLSLNMCLLPLESDLFSLQHVESAQPDLFSVANMFVALQNLYGVIPTVYGLGSESKNLWNLVHALCSSNELRARPDQPISHLFLFDRQLDPVPVLLTGASYEGLLHEFFTIDCGKLAFPVDLRKQVQTGPLDFDWIEINPEEDKEAHQQNRGDTVKLDNCEDIFASIRNKHVTAALEFLHSKAKSIQKSIEKSSMIDDVADYRNFVEKDLRALKKDHKHCELHINACEMMMNKVKMEDYRTMFKLEHEMLLGTVTHEEYFDFVFERVPMRSCRDVVLSMMSLASLKLDGVPDDTYNEFVEMYLQKYGYEHMFELQNLRNSRVIYARRHIAHDRTISERARTWETLARKFRIVKGNEPMDMSNPSDMSYVFGARISPLLCKIVEDTIDHGWNQAEYERIIGKDKVLVEENTYIAADRRPDNRTRKAIMVFVNGGITYWEVAALRLLAIQKNFRILICTTHVIKKREYLEVRAKDASSVFGS
- binding (SPE-39-GST (C. elegans)): binds

B2: myc-VPS45 (protein, UniProt Q9NRW7 1-570)
chain: MNVVFAVKQYISKMIEDSGPGMKVLLMDKETTGIVSMVYTQSEILQKEVYLFERIDSQNREIMKHLKAICFLRPTKENVDYIIQELRRPKYTIYFIYFSNVISKSDVKSLAEADEQEVVAEVQEFYGDYIAVNPHLFSLNILGCCQGRNWDPAQLSRTTQGLTALLLSLKKCPMIRYQLSSEAAKRLAECVKQVITKEYELFEFRRTEVPPLLLILDRCDDAITPLLNQWTYQAMVHELLGINNNRIDLSRVPGISKDLREVVLSAENDEFYANNMYLNFAEIGSNIKNLMEDFQKKKPKEQQKLESIADMKAFVENYPQFKKMSGTVSKHVTVVGELSRLVSERNLLEVSEVEQELACQNDHSSALQNIKRLLQNPKVTEFDAARLVMLYALHYERHSSNSLPGLMMDLRNKGVSEKYRKLVSAVVEYGGKRVRGSDLFSPKDAVAITKQFLKGLKGVENVYTQHQPFLHETLDHLIKGRLKENLYPYLGPSTLRDRPQDIIVFVIGGATYEEALTVYNLNRTTPGVRIVLGGTTVHNTKSFLEEVLASGLHSRSKESSQVTSRSASRR
- binding (GFP-Rabenosyn-5 (human) [2]): binds
- binding (GFP-VIPAS39 (human)): binds

B3: myc-Rabenosyn-5 (protein, UniProt Q9H1K0 1-784)
chain: T1 sequence
- binding (GFP-VIPAS39 (human)): binds

B4: myc-EHD1 (protein, UniProt Q9H4M9 1-534)
chain: MFSWVSKDARRKKEPELFQTVAEGLRQLYAQKLLPLEEHYRFHEFHSPALEDADFDNKPMVLLVGQYSTGKTTFIRHLIEQDFPGMRIGPEPTTDSFIAVMHGPTEGVVPGNALVVDPRRPFRKLNAFGNAFLNRFMCAQLPNPVLDSISIIDTPGILSGEKQRISRGYDFAAVLEWFAERVDRIILLFDAHKLDISDEFSEVIKALKNHEDKIRVVLNKADQIETQQLMRVYGALMWSLGKIINTPEVVRVYIGSFWSHPLLIPDNRKLFEAEEQDLFKDIQSLPRNAALRKLNDLIKRARLAKVHAYIISSLKKEMPNVFGKESKKKELVNNLGEIYQKIEREHQISPGDFPSLRKMQELLQTQDFSKFQALKPKLLDTVDDMLANDIARLMVMVRQEESLMPSQVVKGGAFDGTMNGPFGHGYGEGAGEGIDDVEWVVGKDKPTYDEIFYTLSPVNGKITGANAKKEMVKSKLPNTVLGKIWKLADVDKDGLLDDEEFALANHLIKVKLEGHELPADLPPHLVPPSKRRHE
- binding (GFP-Rabenosyn-5 (human) [2]): binds

B5: myc-VIPAS39 (protein, UniProt Q9H9C1 1-493)
chain: T3 sequence
- binding (GFP-Rabenosyn-5 (human) [2]): binds

B6: myc-Rab11FIP5 (protein, UniProt Q9BXF6 1-653)
chain: MALVRGAEPAAGPSRWLPTHVQVTVLRARGLRGKSSGAGSTSDAYTVIQVGREKYSTSVVEKTHGCPEWREECSFELPPGALDGLLRAQEADAGPAPWAASSAAACELVLTTMHRSLIGVDKFLGQATVALDEVFGAGRAQHTQWYKLHSKPGKKEKERGEIEVTIQFTRNNLSASMFDLSMKDKPRSPFSKIRDKMKGKKKYDLESASAILPSSAIEDPDLGSLGKMGKAKGFFLRNKLRKSSLTQSNTSLGSDSTLSSASGSLAYQGPGAELLTRSPSRSSWLSTEGGRDSAQSPKLFTHKRTYSDEANQMRVAPPRALLDLQGHLDAASRSSLCVNGSHIYNEEPQGPVRHRSSISGSLPSSGSLQAVSSRFSEEGPRSTDDTWPRGSRSNSSSEAVLGQEELSAQAKVLAPGASHPGEEEGARLPEGKPVQVATPIVASSEAVAEKEGARKEERKPRMGLFHHHHQGLSRSELGRRSSLGEKGGPILGASPHHSSSGEEKAKSSWFGLREAKDPTQKPSPHPVKPLSAAPVEGSPDRKQSRSSLSIALSSGLEKLKTVTSGSIQPVTQAPQAGQMVDTKRLKDSAVLDQSAKYYHLTHDELISLLLQRERELSQRDEHVQELESYIDRLLVRIMETSPTLLQIPPGPPK
- binding (GFP-Rabenosyn-5 (human) [2]): binds

B7: VPS-33.1 (protein, UniProt P34260 1-603)
chain: MAANEDRDDAAAILNWEGTSEIKSANEYSRNLLFSVLDSLDGNKTIVWDRDRSVMHRVNLFAGASVLAAHGVVANHSIETKKSASTPHVVFFLAPTMVSLDLLCDYIDNVRNDSKILYQVFFIPEAWFVVRESLKTRAEGKYWERLESVKEIPLCWLPRDGECLSLSSPQIAARLLINGDWTHLHKCAVALNQLIDMCRGRSSSSNQRPMSIYAKGKWASDVAKMMGKIRNSAEADSMTKNLDPIEGLLKINRIVLIDRWMDPLTPMLSQLTFYGLLDEIYGIGMVNSVKVPEMEFKNEKDGDPFQEKEVYLIDEVYHRLKHSHINAVSIEASKVLAEIRDDEQFDRDKMSVAEYSVLVKKMPKIINRKKMIEVHMRLAEMIQSHVYCKQSDSIKLERDLLEYSDSDKAIPLIEDLIFDASPLNAVLRLISVHSLTCGGLKPSVLQHYRRIVNQSYGSSALNKVLKMQKMGLIREKGGGGKMQCEYAQMMFQQMKKNHDMLPEEFSEAKLDDMAYAYSGFSPLLCKMLEEGDRVKWVGWPKTVIGDKSDLIAERDGRGTCVFVIGGLTRSELAIIRENLPNVALITTSALITGDKLLNNITNI
- binding (SPE-39-GST (C. elegans)): no binding
